{"source": "paper PMC9547787", "note": "No constants are given. Whether binding was seen depends on the method and setting. Binding seen in cells or lysates may run through a third protein. These calls come from enrichment with a bait or labelling near it, and not all partners need be listed. A no says only that the protein was not detected with the bait.", "data": [{"molecular_target": "H3.1K27M (FLAG-BirA* fusion, BioID bait) (human)", "test": "proximity labelling; BioID: FLAG-BirA*-H3 (WT or mutant) induced in Flp-In T-REx HEK293 with 50 uM biotin for 24 h; streptavidin sepharose pull-down, LC-MS/MS; high confidence BFDR <= 0.01 against FlagBirA* controls; mutants compared with their WT by peptide counts", "values": [{"binder": "ADNP2 (protein, UniProt Q6IQ32 1-1131) MFQIPVENLDNIRKVRKKVKGILVDIGLDSCKELLKDLKGFDPGEKYFHNTSWGDVSLWEPSGKKVRYRTKPYCCGLCKYSTKVLTSFKNHLHRYHEDEIDQELVIPCPNCVFASQPKVVGRHFRMFHAPVRKVQNYTVNILGETKSSRSDVISFTCLKCNFSNTLYYSMKKHVLVAHFHYLINSYFGLRTEEMGEQPKTNDTVSIEKIPPPDKYYCKKCNANASSQDALMYHILTSDIHRDLENKLRSVISEHIKRTGLLKQTHIAPKPAAHLAAPANGSAPSAPAQPPCFHLALPQNSPSPAAGQPVTVAQGAPGSLTHSPPAAGQSHMTLVSSPLPVGQNSLTLQPPAPQPVFLSHGVPLHQSVNPPVLPLSQPVGPVNKSVGTSVLPINQTVRPGVLPLTQPVGPINRPVGPGVLPVSPSVTPGVLQAVSPGVLSVSRAVPSGVLPAGQMTPAGQMTPAGVIPGQTATSGVLPTGQMVQSGVLPVGQTAPSRVLPPGQTAPLRVISAGQVVPSGLLSPNQTVSSSAVVPVNQGVNSGVLQLSQPVVSGVLPVGQPVRPGVLQLNQTVGTNILPVNQPVRPGASQNTTFLTSGSILRQLIPTGKQVNGIPTYTLAPVSVTLPVPPGGLATVAPPQMPIQLLPSGAAAPMAGSMPGMPSPPVLVNAAQSVFVQASSSAADTNQVLKQAKQWKTCPVCNELFPSNVYQVHMEVAHKHSESKSGEKLEPEKLAACAPFLKWMREKTVRCLSCKCLVSEEELIHHLLMHGLGCLFCPCTFHDIKGLSEHSRNRHLGKKKLPMDYSNRGFQLDVDANGNLLFPHLDFITILPKEKLGEREVYLAILAGIHSKSLVPVYVKVRPQAEGTPGSTGKRVSTCPFCFGPFVTTEAYELHLKERHHIMPTVHTVLKSPAFKCIHCCGVYTGNMTLAAIAVHLVRCRSAPKDSSSDLQAQPGFIHNSELLLVSGEVMHDSSFSVKRKLPDGHLGAEDQRHGEEQPPILNADAAPGPEKVTSVVPFKRQRNESRTEGPIVKDEALQILALDPKKYEGRSYEEKKQFLKDYFHKKPYPSKKEIELLSSLFWVWKIDVASFFGKRRYICMKAIKNHKPSVLLGFDMSELKNVKHRLNFEYEP", "binding": "binds"}, {"binder": "SETDB2 (protein, UniProt Q96T68 1-719) MGEKNGDAKTFWMELEDDGKVDFIFEQVQNVLQSLKQKIKDGSATNKEYIQAMILVNEATIINSSTSIKGASQKEVNAQSSDPMPVTQKEQENKSNAFPSTSCENSFPEDCTFLTTENKEILSLEDKVVDFREKDSSSNLSYQSHDCSGACLMKMPLNLKGENPLQLPIKCHFQRRHAKTNSHSSALHVSYKTPCGRSLRNVEEVFRYLLETECNFLFTDNFSFNTYVQLARNYPKQKEVVSDVDISNGVESVPISFCNEIDSRKLPQFKYRKTVWPRAYNLTNFSSMFTDSCDCSEGCIDITKCACLQLTARNAKTSPLSSDKITTGYKYKRLQRQIPTGIYECSLLCKCNRQLCQNRVVQHGPQVRLQVFKTEQKGWGVRCLDDIDRGTFVCIYSGRLLSRANTEKSYGIDENGRDENTMKNIFSKKRKLEVACSDCEVEVLPLGLETHPRTAKTEKCPPKFSNNPKELTVETKYDNISRIQYHSVIRDPESKTAIFQHNGKKMEFVSSESVTPEDNDGFKPPREHLNSKTKGAQKDSSSNHVDEFEDNLLIESDVIDITKYREETPPRSRCNQATTLDNQNIKKAIEVQIQKPQEGRSTACQRQQVFCDEELLSETKNTSSDSLTKFNKGNVFLLDATKEGNVGRFLNHSCCPNLLVQNVFVETHNRNFPLVAFFTNRYVKARTELTWDYGYEAGTVPEKEIFCQCGVNKCRKKIL", "binding": "binds"}, {"binder": "ATF1 (protein, UniProt P18846 1-271) MEDSHKSTTSETAPQPGSAVQGAHISHIAQQVSSLSESEESQDSSDSIGSSQKAHGILARRPSYRKILKDLSSEDTRGRKGDGENSGVSAAVTSMSVPTPIYQTSSGQYIAIAPNGALQLASPGTDGVQGLQTLTMTNSGSTQQGTTILQYAQTSDGQQILVPSNQVVVQTASGDMQTYQIRTTPSATSLPQTVVMTSPVTLTSQTTKTDDPQLKREIRLMKNREAARECRRKKKEYVKCLENRVAVLENQNKTLIEELKTLKDLYSNKSV", "binding": "binds"}, {"binder": "mitochondrial transcription factor 1 (TFAM) (protein, UniProt Q00059 43-246) SSVLASCPKKPVSSYLRFSKEQLPIFKAQNPDAKTTELIRRIAQRWRELPDSKKKIYQDAYRAEWQVYKEEISRFKEQLTPSQIMSLEKEIMDKHLKRKAMTKKKELTLLGKPKRPRSAYNVYVAERFQEAKGDSPQEKLKTVKENWKNLSDSEKELYIQHAKEDETRYHNEMKSWEEQMIEVGRKDLLRRTIKKQRKYGAEEC", "binding": "no binding"}]}]}
